Reference: the supplement of paper PMC10338343
± gives the standard deviation. Some of the results follow. Many entries were measured with a wide error.

Tested on: EfPiwi piRISC loaded with L1MC piRNA (26 nt)
Assay: pre-steady-state target cleavage rate (min^-1); guide: L1MC piRNA 5'p-UAACUAAAUACUAUGCAAGCUGUAGG; MIWI and MILI are mouse PIWI proteins and EfPiwi is from a freshwater sponge; tags in brackets are library labels; higher = faster piRNA-guided slicing of the target
Settings: auxiliary factor: 500 nM Ephydatia muelleri Gtsf1
Procedure, shortened: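 At 33 °C in HEPES–potassium acetate buffer, a transcribed, DNA-blocked target RNA library […] was exposed for 0–8 or 0–960 min to 1 nM active affinity-purified piRISC carrying a single synthetic guide, with or without 500 nM GTSF1 partner protein. Uncleaved targets were sequenced and normalised to depth and to weakly complementary targets. With three trials pooled and k3 capped at 0.0001 min^-1, a burst-and-steady-state fit produced the pre-steady-state cleavage rate.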

Sequence	pre-steady-state target cleavage rate
UCCUCCUACACCUUGCUUAGUAUUUAGUUA	0.00914 ± 0.0039
UCCUCCUACAGCUUGCUUAGUAAUUAGUUA	0.0113 ± 0.0049
UCCUCCUACAACUUGCAUAGUAUUUAGUUA	0.0806 ± 0.024
UCCUGGAUCAGCUUGCAUAGUAUUUGGUUA	0.00498 ± 0.002
UCCUGGAUCAGCUUGCAAUGUAUUUAGUUA	0.00462 ± 0.0039
UCCUGCUACAGCUUGCAUAGUACUUAGUUA	0.00608 ± 0.0018
UCCUGGUACAGCUUGCAUACUAUUUUGUUA	0.00127 ± 0.0042
UCCUGGUACACCUUGCAUAGAAUUUAGUUA	0.00141 ± 0.0036
UCCUGGAUGUCGAACGUUAGUAUGUUAGUUA	< 0.0001
UCCUGGAUCAGUCUUGCAUAGUAUUUAGUUA	0.0152 ± 0.0042
UCCUGGAACUGCUUGCAUAGUAUUUAGUUA	0.0203 ± 0.006
UCCUGGAUGUGCUUGCAUACAUAAAUCAAA [g12:g20:cont:t1A]	0.000151 ± 0.024
UCCUGGAUGUGCUUGGAUAGUAUAUAGUUA	0.000414 ± 0.01
UCCUGGAUGUGCUGCAUAGUAUUUAGUUA	0.00571 ± 0.0034
UCCUGGAUGUCGAACGUUUGUAUUUAGUAA	0.000124 ± 0.022
UCCUGGAACUCCUUGCAUAGUAUUUAGUUA	0.0352 ± 0.009
UCCUGGAUGUCGUUGGUAAGUAUUUAGUUA	< 0.0001

Sequence	pre-steady-state target cleavage rate
UCCUGGAACAGCUUACAUAGUAUUUAGUUA	0.0502 ± 0.012
UCCUCGUACAGGUUGCAUAGUAUUUAGUUA	0.0399 ± 0.0088
UCCUGGUACAGCUUGCAUAGUAUUUGAGUUA	0.00306 ± 0.0023
UCCUGGAUGUGCAUGCAUAGUAUUUAGUUA	0.00855 ± 0.0029
UCCUCCUACUGCUAGCAUAGUAUUUAGUUA	0.0131 ± 0.004
UCCUGGAUGAGCUUGCAAACUAUUUAGUUA	0.00161 ± 0.0021
UCCUGGUACACCUUGCAUAGUUUUUAGUUA	0.00108 ± 0.0083
UCCUCCUACAGCUUGCUUAGUAUUUAGUAA	0.00594 ± 0.0027
UCCUGGAUGUCGAACGUAAGUAUUUAGUUU [g2:g12:cont:t1U]	0.000381 ± 0.015
UCCUCCUACAGCUUGCAUAGUAUUUAGUUU [g2:g26:cont:t1U]	0.265 ± 0.062
UCCUGGAUGUCGUUGCAUAGUAUUCUAGUUA	0.000942 ± 0.0096
UCCUCCUACAGCUUGCAUAGUAUAUAGUUA	0.00814 ± 0.0038
UCCUGGAUGAGCUUGGUUAGUAUUUAGUUA	0.00153 ± 0.0036
UCCUGGAACAGCUUUGCAUAGUAUUUAGUUA	0.0309 ± 0.0082
UCCUGGAUCAGCUUGCAUAGAAUUAAGUUA	0.0017 ± 0.0019
UCCUGGUACAGCUUGCAUAGUUUUUACUUA	0.000499 ± 0.019

Same assay, conditions: auxiliary factor: none (no Gtsf1)

Sequence	pre-steady-state target cleavage rate
UCCUGGAUGACCUUGCAUAGUAUAUAGUUA	0.000241 ± 0.046
UCCUGGAUGUCGAACCAUAGUAGUUUAGUUA	< 0.0001
UCCUGGUACAGCUCUGCAUAGUAUUUAGUUA	0.000426 ± 0.034
UCCUGGAACAGGUUGCAUUGUAUUUAGUUA	0.000318 ± 0.032
UCCUGGAUGAGCUAGCAUAGUAAUUAGUUA	0.000282 ± 0.029
UCCUGGAUGUCGAACGUAUCUAUUUAAUUA	< 0.0001
UCCUGGAACAGCUUGUCAUAGUAUUUAGUUA	0.00277 ± 0.0045

Quoted from the listing for reference:
Sequence	pre-steady-state target cleavage rate
UCCUGGAUGAGCUAGCAUAGUAAUUAGUUA	0.000282 ± 0.029
UCCUGGAUGUCGAACGUAUCUAUUUAAUUA	< 0.0001
UCCUGGAACAGCUUGUCAUAGUAUUUAGUUA	0.00277 ± 0.0045
